In US10967086B2, “Silver nanoparticle-enhanced photosensitizers as antibiofilm agents” (University Of Cincinnati, priority 2014, dated 2021):
Counter-ions that a name gives are not always drawn. Some results were stated once for a whole list of compounds, not compound by compound.

Test system: Staphylococcus epidermidis (ATCC 35984)
Assay: Photodynamic inactivation assay, white light, plate count
Assay type: cell-based
Settings: HPIX concentration 2 μM (adsorbed or pure), 40 J/cm^2 white light, irradiated immediately
Procedure: Photodynamic Inactivation Assays. Typically, overnight cultures of Staphylococcus epidermidis (ATCC 35984), Escherichia coli (ATCC 35218), and Acinetobacter baumannii (ATCC 19606) were inoculated into PBS buffer solution (pH=7.4) and mixed with a series of concentrations of Ag@mSiO2@HPIX hybrid, HPIX (dissolved in the same PBS buffer solution), or Ag@mSiO2 nanoparticles. All bacterial suspensions (200 μL) were then placed in the wells of 96-well plates. The final cell concentration of the suspensions was between about 10^6 and 10^7 colony-forming units per mL (CFU/mL). The wells were illuminated with different fluences. After illumination, a plate count was performed. Bacterial viability was determined by a modified version of the Miles and Misra method.
The suspensions were serially 10-fold diluted with PBS. Then, drops of 10 μL of each dilution were applied onto MH II agar plates. Plates were streaked in triplicate and incubated for 18-24 h at 37° C. in the dark before counting. A non-coherent, white light source with interchangeable fiber bundle (model LC-122, LumaCare) was used in all photoinactivation experiments. The irradiance at the position of the samples was kept at 300 mW/cm^2, as measured by a laser power meter (Model 840011, SPER Scientific).
Ag@mSiO2@HPIX was used as a model system in the PDI study. Ag@mSiO2@HPIX was first tested with S. epidermidis, a Gram-positive bacterium. […]

In the case of CC1=C(CCC(=O)O)c2cc3[nH]c(cc4nc(cc5[nH]c(cc1n2)c(C)c5C(C)O)C(C)=C4C(C)O)c(C)c3CCC(=O)O (stereo not shown) [HPIX, hematoporphyrin IX dihydrochloride], the bacterial killing is reported as “less than 1 log”.
